Holding throughout (experiment): glycan array binding signal (z-score within array); higher = stronger binding
Details in all cases: glycan notation: IUPAC condensed, linker removed

The target of test [1] is Gal(b1-4)GlcNAc(b1-2)Man(a1-3)[Gal(b1-4)GlcNAc(b1-2)Man(a1-6)]Man(b1-4)GlcNAc(b1-4)[Fuc(a1-6)]GlcNAc. The method, boiled down: (§1)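 The Consortium for Functional Glycomics database supplied 3228 glycan arrays, of which those lacking an available protein sequence were dropped. The binding signal, a within-array Z-score, was averaged across arrays of the same protein sequence and across linkers. Negative scores can be read as non-binding.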

Test [2] has as its target Gal(b1-4)GlcNAc(b1-2)Man(a1-3)[Gal(b1-4)GlcNAc(b1-2)Man(a1-6)][Gal(b1-4)GlcNAc(b1-4)]Man(b1-4)GlcNAc(b1-4)[Fuc(a1-6)]GlcNAc. The method, boiled down:
as §1

Test [3] addresses Gal(b1-4)GlcNAc(b1-2)Man(a1-3)[Gal(b1-4)GlcNAc(b1-2)Man(a1-6)][GlcNAc(b1-4)]Man(b1-4)GlcNAc(b1-4)[Fuc(a1-6)]GlcNAc. The procedure, abridged:
as §1

Test [4] concerns the target Gal(b1-4)GlcNAc(b1-2)Man(a1-3)[GlcNAc(b1-2)Man(a1-6)]Man(b1-4)GlcNAc(b1-4)GlcNAc. The procedure, abridged:
as §1

For test [5], the target named is Gal(b1-4)GlcNAc(b1-2)Man(a1-3)[GlcNAc(b1-4)][Gal(b1-4)GlcNAc(b1-2)Man(a1-6)]Man(b1-4)GlcNAc(b1-4)GlcNAc. The procedure, abridged:
as §1

Test [6] addresses Gal(b1-4)GlcNAc(b1-2)Man(a1-3)[Man(a1-6)]Man(b1-4)GlcNAc(b1-4)GlcNAc. The method, boiled down:
as §1

Test [7] addresses Gal(b1-4)GlcNAc(b1-2)Man(a1-6)Man(b1-4)GlcNAc(b1-4)GlcNAc. The method, boiled down: as §1
The target of test [8] is Gal(b1-4)GlcNAc(b1-2)Man(a1-6)[GlcNAc(b1-2)Man(a1-3)]Man(b1-4)GlcNAc(b1-4)GlcNAc. The procedure, abridged:
as §1

In test [9] the target is Gal(b1-4)GlcNAc(b1-2)Man(a1-6)[Man(a1-3)]Man(b1-4)GlcNAc(b1-4)GlcNAc. The method, boiled down:
as §1

Test [10] deals with Gal(b1-4)GlcNAc(b1-2)[Gal(b1-4)GlcNAc(b1-4)]Man(a1-3)[Gal(b1-4)GlcNAc(b1-2)Man(a1-6)]Man(b1-4)GlcNAc(b1-4)GlcNAc. The method, boiled down: as §1
The target of test [11] is Gal(b1-4)GlcNAc(b1-2)[Gal(b1-4)GlcNAc(b1-4)]Man(a1-3)[Gal(b1-4)GlcNAc(b1-2)[Gal(b1-4)GlcNAc(b1-6)]Man(a1-6)]Man(b1-4)GlcNAc(b1-4)GlcNAc. The procedure, abridged:
as §1

Test [12] addresses Gal(b1-4)GlcNAc(b1-2)[Gal(b1-4)GlcNAc(b1-4)]Man(a1-3)[GlcNAc(b1-4)][Gal(b1-4)GlcNAc(b1-2)Man(a1-6)]Man(b1-4)GlcNAc(b1-4)GlcNAc. The procedure, abridged:
as §1

Test [13] concerns the target Gal(b1-4)GlcNAc(b1-2)[Gal(b1-4)GlcNAc(b1-4)]Man(a1-3)[GlcNAc(b1-4)][Gal(b1-4)GlcNAc(b1-2)[Gal(b1-4)GlcNAc(b1-6)]Man(a1-6)]Man(b1-4)GlcNAc(b1-4)GlcNAc. The procedure, abridged:
as §1

For test [14], the target named is Gal(b1-4)GlcNAc(b1-2)[Gal(b1-4)GlcNAc(b1-6)]Man(a1-6)[Gal(b1-4)GlcNAc(b1-2)Man(a1-3)]Man(b1-4)GlcNAc(b1-4)GlcNAc. The method, boiled down:
as §1

Test [15] concerns the target Gal(b1-4)GlcNAc(b1-2)[Gal(b1-4)GlcNAc(b1-6)]Man(a1-6)[Gal(b1-4)GlcNAc(b1-2)Man(a1-3)]Man(b1-4)GlcNAc(b1-4)[Fuc(a1-6)]GlcNAc. The procedure, abridged:
as §1

Test [16] deals with Gal(b1-4)GlcNAc(b1-2)[Gal(b1-4)GlcNAc(b1-6)]Man(a1-6)[GlcNAc(b1-4)][Gal(b1-4)GlcNAc(b1-2)Man(a1-3)]Man(b1-4)GlcNAc(b1-4)GlcNAc. The method, boiled down: as §1
The target of test [17] is Gal(b1-4)GlcNAc(b1-2)[Gal(b1-4)GlcNAc(b1-6)]Man(a1-6)[GlcNAc(b1-4)][Gal(b1-4)GlcNAc(b1-2)[Gal(b1-4)GlcNAc(b1-4)]Man(a1-3)]Man(b1-4)GlcNAc(b1-4)[Fuc(a1-6)]GlcNAc. The method, boiled down: as §1
Test [18] deals with Gal(b1-4)GlcNAc(b1-3)Gal(b1-3)GalNAc. The procedure, abridged:
as §1

Test [19] deals with Gal(b1-4)GlcNAc(b1-3)Gal(b1-3)GlcNAc. The procedure, abridged: as §1

Some of the results follow.

The values below come from the supplement of paper PMC8728848.

B1: PX9961K-bvu-480-28-480 (Bacteroides vulgatus) (protein)
chain: NKIPTTMAFRTVTDVDNAVNGLYDLMSGSGYYGAAMFAYGDMKGDDMQSSEESGVCNTCYMFNHRPNSLNAGSLWGRPFYILREAWNILNAIAEGKIESGDEKKLNALKGETMAVIALCQFDLTRCFGYPYTKDKGASLGAPLIDHLVGTYENPPRSTVAQAYDFIIETLEEAVTLMSEEKNNGRMNKYAARALLARIYLYHDDNRKAFDLADQLIKDADTSGSYALYPHEKYVAAWSVEAKFGSESFFEIANSVDDTPGRDSWGYLLNWYGYQKGFVTQKYAEQMLADPGDVRGHLLEENKYAGKTVWWLYKLRGTDLKTAPLECNNVVLRLSEVYLIAAEAGCKLGGDAAVQGLGYLNEIVKRGNPDNEVTMADYTLDRVLDERSKELVGEGHRFFDLLRNGKTIVRKGGYHLPSVDEEVDWDFYKCVLPIPEDQFIFSPEMEQNPGYPKN
As for B1, the “glycan array binding signal (z-score)” value in [1] was 0.939; in [2] it was -0.167; in test [3] it was -0.521; in [4] it was 0.42; in test [5], -0.407; in [6], 0.569. Also, the “glycan array binding signal (z-score)” value is -0.347 in [7]; -0.606 in test [8]; -0.775 in [9]; 1.4 in test [10]; 0.452 in [11]; -0.122 in test [12]. Further, the “glycan array binding signal (z-score)” value was 0.328 in [13]; 0.246 in [14]; 0.228 in test [15]; -0.251 in test [16]; 0.362 in test [17]; -0.538 in test [18]. Also, the “glycan array binding signal (z-score)” value in [19] was -0.821.
